According to US20150361164A1:
Results are given in words; binding and its absence hold for the method and conditions named. Some entries that bind do so weakly or less than the wild type.

By UniProt entry, the sequences of proteins in these tests, tags left out.
UniProt P63158: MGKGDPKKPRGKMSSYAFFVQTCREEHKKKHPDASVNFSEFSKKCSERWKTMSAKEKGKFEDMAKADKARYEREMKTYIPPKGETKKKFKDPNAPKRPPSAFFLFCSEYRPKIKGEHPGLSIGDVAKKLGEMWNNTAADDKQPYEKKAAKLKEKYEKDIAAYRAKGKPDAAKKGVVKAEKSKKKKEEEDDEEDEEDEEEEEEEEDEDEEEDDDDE

T1: #01
T1 sequence (peptide): EEEEDEEDEEDE

T2: #02
T2 sequence (peptide): EDEEDEEDEEEE

T3: #03
T3 sequence (peptide): EDEEDEEEEEDE

T4: #04
T4 sequence (peptide): EEDEEEEEDEED

T5: #05
T5 sequence (peptide): DEEEEEDEEDED

T6: #06
T6 sequence (peptide): EEEEDEEDEDEE

T7: #07
T7 sequence (peptide): EEDEEDEDEEED

T8: #08
T8 sequence (peptide): DEEDEDEEEDDD

B1: #10-22 humanized antibody EV007156 (antibody, human IgG1, lambda, V domains shown)
VH: EVQLVESGGGLVQPGGSLKLSCAASGFTFSNAAMYWVRQASGKGLEWVARIRTKPNNYATYYADSVKGRFTISRDDSKNTAYLQMNSLKTEDTAVYYCTAPRRTEGIVSSGVDYWGQGTLVTVSS
VL: YELTQPPSVSVSPGQTASITCSGDELPKRYAYWYQQKPGQSIVRVIYKDSERPSGIPERFSGSSSGTTATLTISGTQAEDEADYYCHSTYSDDKLPVFGGGTKLTVLG
B2: rat anti-HMGB1 monoclonal antibody #10-22 (antibody, V domains shown)
VH: AVQLVESGGGLVQPKESLKISCAASGFTFSNAAMYWVRQAPGKGLEWVARIRTKPNNYATYYADSVKGRFTISRDDSKSMVYLQMDNLKTEDTAMYYCTAPRRTEGIVSSGVDYWGQGVMVTVSS
VL: YELIQPPSASVTLGNTVSITCSGDELPKRYAYWYQQKPDKSIVRVIYKDSERPSGISDRFSGSSSGTTATLTIRDTQAEDEADYYCHSTYSDDKLPVFGGGTKLTVLG

Assays:
#01 = biological target: T1, #01; assay: dot blot of synthetic peptides on nitrocellulose, HRP anti-human IgG
#02 = biological target: T2, #02; assay: as above
#03 = biological target: T3, #03; assay: as above
#04 = biological target: T4, #04; assay: as above
#05 = biological target: T5, #05; assay: as above
#06 = biological target: T6, #06; assay: as above
#07 = biological target: T7, #07; assay: as above
#08 = biological target: T8, #08; assay: as above
[1] = biological target: activated HMGB1 (prepared from RAW cells) (UniProt P63158); assay: Western blotting, antibody at 2 µg/ml

| binding [1] | Binder | binding (#01) | binding (#02) | binding (#03) | binding (#04) | binding (#05) | binding (#06) | binding (#07) | binding (#08) |
| --- | --- | --- | --- | --- | --- | --- | --- | --- | --- |
|  | B1 | no binding (tested: 1 µg/ml EV007156, peptide 4 µg/spot) | no binding (tested: 1 µg/ml EV007156, peptide 4 µg/spot) | no binding (tested: 1 µg/ml EV007156, peptide 4 µg/spot) | no binding (tested: 1 µg/ml EV007156, peptide 4 µg/spot) | no binding (tested: 1 µg/ml EV007156, peptide 4 µg/spot) | no binding (tested: 1 µg/ml EV007156, peptide 4 µg/spot) | no binding (tested: 1 µg/ml EV007156, peptide 4 µg/spot) | no binding (tested: 1 µg/ml EV007156, peptide 4 µg/spot) |
| binds | B2 |  |  |  |  |  |  |  |  |
